The record followed here is paper PMC2788426.

Protein sequences, listed by entry. Tags and fused reporters are not part of them. Lines headed by an entry give the natural chain unless they say otherwise; changes in a name come on top.
UniProt P42224: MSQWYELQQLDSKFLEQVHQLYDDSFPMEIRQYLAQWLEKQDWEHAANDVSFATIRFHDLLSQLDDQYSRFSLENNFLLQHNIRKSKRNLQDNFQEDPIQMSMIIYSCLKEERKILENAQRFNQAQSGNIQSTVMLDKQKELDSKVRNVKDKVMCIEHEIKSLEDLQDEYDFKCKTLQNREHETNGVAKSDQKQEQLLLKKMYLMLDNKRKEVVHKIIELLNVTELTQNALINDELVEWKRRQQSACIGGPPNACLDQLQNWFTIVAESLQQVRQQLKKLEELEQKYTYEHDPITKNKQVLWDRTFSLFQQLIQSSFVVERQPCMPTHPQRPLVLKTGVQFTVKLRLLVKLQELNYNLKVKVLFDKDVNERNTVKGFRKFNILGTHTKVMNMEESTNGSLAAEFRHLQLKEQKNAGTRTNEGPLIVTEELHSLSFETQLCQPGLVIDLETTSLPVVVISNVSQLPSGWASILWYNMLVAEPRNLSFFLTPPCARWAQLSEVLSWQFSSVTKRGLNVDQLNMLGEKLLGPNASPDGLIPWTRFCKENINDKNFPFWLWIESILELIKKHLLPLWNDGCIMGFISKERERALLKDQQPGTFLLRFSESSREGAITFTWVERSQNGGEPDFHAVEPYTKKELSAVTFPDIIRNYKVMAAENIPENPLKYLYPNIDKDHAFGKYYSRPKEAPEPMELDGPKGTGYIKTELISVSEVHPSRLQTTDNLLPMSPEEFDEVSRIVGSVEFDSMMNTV

The exact form of at least one protein or probe is not confirmed. Where cells or extracts were used, other partners may take part. For some assays here: Negatives hold for the conditions tested. For some assays here: At least one verdict was read from the data and is not stated in words by the source.

The target in one data set is Stat1 homodimer (UniProt P42224). Nature of the data set: EMSA. The settings on record: IFN-gamma 2 h THP-1 extract, positive control; EMSA with 2-4 ug whole cell extract (Results text says nuclear extract), 30 min at 25 C; salt and pH not given (ref. 69); protein in an extract; label: 32P.
The next data set concerns Stat1 + nucleolin. Nature of the data set: competition with a labelled probe. As to conditions: 5-fold excess unlabeled H2K did not affect GAS complex; EMSA with 2-4 ug whole cell extract (Results text says nuclear extract), 30 min at 25 C; salt and pH not given (ref. 69); protein in an extract; label: unlabeled competitor.

Turning to “CATGTTATGCATATTCCTGTAAGTG / CATGCACTTACAGGAATATGCATAA [GAS]”, the binding result in the data set with Stat1 homodimer is given as “binds”.
“GATCCAGGGCTGGGGATTCCCCATCTCCACAGG / GATCCCTGTGGAGATGGGGAATCCCCAGCCCTG [H2K]”: the binding result in the data set with Stat1 + nucleolin is on record as “no binding”.
